The target of test [1] is T1, endogenous SENP1 (SUMO-specific protease 1) in Jurkat E6.1 T cells (human (endogenous in Jurkat E6.1)) (UniProt Q9P0U3).
T1 sequence: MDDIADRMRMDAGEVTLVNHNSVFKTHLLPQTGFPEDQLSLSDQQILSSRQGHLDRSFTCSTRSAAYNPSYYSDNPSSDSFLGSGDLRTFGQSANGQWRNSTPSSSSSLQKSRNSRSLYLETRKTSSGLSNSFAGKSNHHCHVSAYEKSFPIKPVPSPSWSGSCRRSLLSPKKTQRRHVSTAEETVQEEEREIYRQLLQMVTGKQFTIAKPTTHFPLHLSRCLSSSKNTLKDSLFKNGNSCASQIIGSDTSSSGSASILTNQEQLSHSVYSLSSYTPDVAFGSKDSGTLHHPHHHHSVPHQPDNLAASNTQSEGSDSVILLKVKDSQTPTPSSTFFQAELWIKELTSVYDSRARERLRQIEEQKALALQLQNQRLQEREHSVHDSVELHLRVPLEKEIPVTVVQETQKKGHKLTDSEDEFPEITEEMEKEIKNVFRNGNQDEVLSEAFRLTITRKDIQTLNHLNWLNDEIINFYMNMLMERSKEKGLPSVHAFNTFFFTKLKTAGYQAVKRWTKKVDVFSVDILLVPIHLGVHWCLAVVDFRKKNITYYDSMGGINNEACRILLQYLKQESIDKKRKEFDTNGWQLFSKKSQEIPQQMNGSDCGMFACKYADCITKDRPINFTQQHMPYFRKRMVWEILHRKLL
In words: co-IP; endogenous proteins of Jurkat E6.1 T cells; lysis in 1% Nonidet P40, 150 mM NaCl, 20 mM Tris-HCl pH 7.5, 5 mM EDTA; protein G Sepharose, 4°C.

Chains of the proteins cited; added tags and fusions are not shown. Residues count along the entry.
UniProt P55854, residues 1-92: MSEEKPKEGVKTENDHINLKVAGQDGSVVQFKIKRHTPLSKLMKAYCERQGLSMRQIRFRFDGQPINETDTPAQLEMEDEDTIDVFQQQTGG

In another test the target is T2, c-Myc-SENP1 (human) (UniProt Q9P0U3).
T2 sequence: T1 sequence
In words: co-IP; HEK293T cells transfected with c-Myc-SENP1 and HA-Lck; lysis in 1% Nonidet P40, 150 mM NaCl, 20 mM Tris-HCl pH 7.5, 5 mM EDTA; protein G Sepharose, 4°C.

The target of test [2] is GST-SUMO3 (1-92 aa) (human) (UniProt P55854). Nature of the test: pull-down; purified GST-SUMO1 (1-97 aa) or GST-SUMO3 (1-92 aa) immobilised on glutathione beads, incubated at 4°C overnight with lysates of transfected HEK293T cells; western blot; only the target purified. On the technique in general: Immunoblotting shows a protein as a band on a membrane.

Positions count from the first letter of the chain named. Numbers in names are those of the source. No constants are given. Whether binding was seen depends on the method and setting. Binding seen in cells or lysates may run through a third protein. Some binding calls cover weakened binding; strength is not graded here. For some assays here: Where a sequence is shown, tags or fusion partners need not be part of it.

On to “endogenous Lck in Jurkat E6.1 T cells (from UniProt P06239-1 1-509) (enzyme)”, for which the binding result in test [1] was “binds”. Consider “HA-Lck (from UniProt P06239-1 1-509) (enzyme)”, for which the binding result with c-Myc-SENP1 (human) is recorded as “binds”.

B1: SENP1 WT (in lysate of transfected HEK293T cells, GST pull-down) (enzyme, UniProt Q9P0U3-1 1-644)
chain: T1 sequence
B1: the binding entry in test [2] is reported as “binds”.

B2: SENP1 Y270F (in lysate of transfected HEK293T cells, GST pull-down) (enzyme, UniProt Q9P0U3-1 1-644)
chain: T1 sequence with Y270F
For B2, the binding entry in test [2] was “binds”.

B3: SENP1 Y270E (in lysate of transfected HEK293T cells, GST pull-down) (enzyme, UniProt Q9P0U3-1 1-644)
chain: T1 sequence with Y270E
As to B3, the binding result in test [2] was “binds”.

(Values after PMC8847397.)
